Assay results published in PubChem BioAssay AID1347423 (Functional Genomics Laboratory (NCATS/FGL), 2020).
Hit rate of the full screen: of about 52,000 sequences, about 210 (0.4%) were called active.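 Rule for the calls: active = gene whose silencing raises cell survival under the drug, median off-target-corrected z-score across its silencing RNAs 2 or more; inactive = the rest.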 This is one part of the list.

Experiment: Resistance to Poly (ADP-Ribose) Polymerase inhibitor: Gene Identification via Genome-wide siRNA Screen
Details: mouse BRCA2 R2336H ES cells, olaparib, CellTiter-Glo viability; active compounds read high
Procedure, shortened: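 Genome-wide siRNA screen (3 siRNAs/gene, 20 nM) in mouse ES cells carrying hypomorphic BRCA2 R2336H; olaparib 500 nM added 48 h post-transfection, CellTiter-Glo viability 72 h later. Normalized to plate-median negative control; MAD z-scores, gene median, seed-adjusted.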

Row | Sequence | z-score
1 | GCUGGAGUGUCAGUCAUAUTT against Reg4 | inactive: -0.407
2 | GGAAUGGUAGGAAUUCUUCTT against 2610311I19Rik | inactive: 0.682
3 | CCUGUGAAGUAUAACAUCGTT against 8430419L09Rik | inactive: 0.278
4 | GGUGAGUUCAUGGUUUCCUTT against Txnl4b | inactive: 0.696
5 | GGGAUGUUUAUUGUGUUCCTT against Tuba1 | inactive: -0.806
6 | GGAGAAGGAGAUGUCCAAUTT against Guca2b | inactive: -0.752
7 | GGUUCCCUUUUUCAUCUAATT against 4632433K11Rik | inactive: 4.08
8 | GGGAAACCUUCUGUACCAGTT against BC026744 | inactive: 1.21
9 | GCUGAAGUGCAAGAACAAATT against Dmd | inactive: -0.527
10 | GGAGUUCGAAAGUAUCUAUTT against Rcvrn | inactive: -1.53
11 | GGAAUCAGACACGUUCAUCTT against Prkar2a | inactive: -0.396
12 | GGGCUACGGACAUUUCAUUTT against BC027072 | inactive: -1.84
13 | GCAUGAAUGUUCUGAGUUCTT against Sh3bgrl | inactive: 0.72
14 | CGGAGUCCAACCCAUAAAUTT against Blzf1 | inactive: 0.595
15 | GGGAAUCAGAGGCUGGUAATT against BC023814 | inactive: -0.217
16 | GGGCUCUCAAUAUUACCUCTT against Car11 | inactive: -0.743
17 | CGCUAUGAGGCAGCUAAUUTT against Psma6 | inactive: -3.64
18 | GCGAUGACCAAAAAUAUUGTT against Tmc1 | inactive: 2.23
19 | GGAAAGGACAUUGUUGUUCTT against Psma7 | inactive: 0.172
20 | GGCAAUCAGCUUCACUGUGTT against Klk7 | inactive: -0.607
21 | GCUGUACGUUUGCACAUUCTT against Rc3h1 | inactive: -2.53
22 | GCGAUUCAUAACACCAUUGTT against Pole3 | inactive: 0.121
23 | GGACUUGAUUAUCUACACUTT against Stk24 | inactive: 0.803
24 | GGGCAAACCGGAAAAACAGTT against 2600016J21Rik | inactive: 1.94
25 | UACUCGUGGUGUUUGCAAGTT against Olfr1154 | inactive: 0.96
26 | GGAGUAUGAAUGCUAUGUCTT against 9830160G03Rik | inactive: -0.156

Row | Sequence | z-score
27 | GGAUGAACCCAGAAAGAUGTT against Gdf5 | inactive: 0.172
28 | GGAGAGUGAGAAGAUCUUGTT against Ecel1 | inactive: 2.37
29 | GGAGAAGAGGAAAAUGCGUTT against E130201N16Rik | inactive: 0.324
30 | GGACUCUCAACUUCCAAUGTT against Spire2 | inactive: 0.184
31 | GCUCGAUGGAUUGUAAUCUTT against 2610021K21Rik | inactive: -1.1
32 | GGUUAAAAUGUCAUCCUUUTT against Trerf1 | inactive: 0.976
33 | GGAUGCUGUCACAAAUGUGTT against 6720467C03Rik | inactive: -0.397
34 | CCUCAUCUAUGCAUGUUGUTT against Olfr1394 | inactive: -0.577
35 | GGGAUAUGACAGAACCAUATT against Olfr1390 | inactive: 0.207
36 | CCUUCCUAAUGAUUGCCAATT against Grm7 | inactive: 0.35
37 | GGCCUACAAUACCUCCAUUTT against Grid2ip | inactive: -0.597
38 | GGAACUGCUCGUAGGAAGATT against Btf3 | inactive: -2.67
39 | CCACCAAAAACAAAGGACCTT against 1700003E24Rik | inactive: 1.82
40 | GGACUCCUAUCCAUCUAUGTT against Panx3 | inactive: 0.511
41 | GGAGAUGCAAAGUCUGUCUTT against 2310015J09Rik | inactive: 1.45
42 | GGGACCACUGUGUAUUGACTT against 5730592L21Rik | inactive: 0.734
43 | GGACAUUUCCAAUAACAUUTT against Mki67ip | inactive: -2.22
44 | GGACACCUAUCUUGUCCGGTT against 2810410C14Rik | inactive: 1.02
45 | GGACAUUUUUAUUAGUGGATT against 0610037H22Rik | inactive: 1.01
46 | GGUGGUGAUAAUUGUUUUUTT against Olfr1497 | inactive: 0.218
47 | GCAUAUGCUUUUACAACACTT against Suhw3 | inactive: 0.929
48 | GGCCUAUAAGUUGGACUCCTT against Sstr5 | inactive: -1.27
49 | GGCAGCUCUGACUUUAUAATT against Klhdc3 | inactive: -2.93
50 | CCCUAAGGUGGCAGAAAUCTT against Atp1a2 | inactive: -0.694
51 | GGCCUUUCAAUGUUACAGATT against Mpo | inactive: -1.03
52 | GCUGAAAGGAAUGUGCUCATT against Hspa8 | inactive: -2.95

Row | Sequence | z-score
53 | GGCUGACAGAAGGAUGCUCTT against Rps27 | inactive: 0.343
54 | GCUGUCAAGGAUCAUCCCATT against AU040576 | inactive: 3.89
55 | CCCUACUGAGAUCUUAGAUTT against Pole | inactive: -1.7
56 | GCUGCACGUGAUCAUGGAUTT against 2610203E10Rik | inactive: 2.15
57 | GGCUCAAAACAGCAAGAUCTT against Angptl4 | inactive: -0.361
58 | GGGCAUAGACAGUACCAGUTT against 4922502D21Rik | inactive: 0.272
59 | GCUUUUCACAUGAUGUGUUTT against Klrb1a | inactive: 0.553
60 | GGUCGCUACAAGAUGACUUTT against Hapln4 | inactive: 0.151
61 | GGCUUCAAGGGAAAAGCUGTT against B930037P14Rik | inactive: 0.168
62 | GCAAGACUCAGAGAGGUGGTT against A730020M07Rik | inactive: -0.495
63 | GCAGACAACGCACUGAUGATT against C630007C17Rik | inactive: -0.367
64 | GGAUGCUUACUUACCUCAUTT against Tas2r107 | inactive: -2.06
65 | GCUAAGUGACCUCUUUAACTT against D15Wsu75e | inactive: -0.203
66 | GCUCAACACUCGACAUUGUTT against Rrm1 | inactive: -2.32
67 | GGCUGUUGAACUUAAUCCCTT against Tomm70a | inactive: -0.723
68 | CGGCCUAUCUCUUGGUUUATT against Usp18 | active: 2.69
69 | CGGAUAAUCAACAUUUCCUTT against A430081P20Rik | inactive: 0.487
70 | GGAACAACUCCUGUUCCCATT against Obscn | inactive: 0.993
71 | GCCAUUGUACCAUGAAGAGTT against Ttc15 | inactive: -1.88
72 | GGUGCUAUGGAAAAUCAAGTT against B930007L02Rik | inactive: 0.168
73 | CGAGGCUAUGAAAUCAGCCTT against Gfi1b | inactive: 2.21
74 | GGAGAUCAAGAAUCUCUCUTT against Zfp179 | inactive: -0.0659
75 | CCCAUAAAACAGUCAACUATT against Ankra2 | inactive: 0.585
76 | CGCGGCAAAUGUUUUAAAUTT against Scd3 | inactive: 0.478
77 | GCUGAGUUCAUUGCAAUGCTT against Cyp4a12 | inactive: 0.261
78 | GCCUGAACAUCAAGAUCCUTT against BC018465 | inactive: -0.613

Row | Sequence | z-score
79 | GCGACGAUUGUUAAAGCUGTT against Top1mt | inactive: 0.0562
80 | GGACUUACUGAAAGAUAUGTT against Satb1 | inactive: -0.69
81 | GGUGCAACAACUUAGUUUATT against Hspa2 | inactive: 1.07
82 | GCUUUACAUCUUUGAAUGGTT against Psp | inactive: -0.207
83 | GGUCCGAUUUCAAGCCAUGTT against Ucp3 | inactive: -0.396
84 | GGCCUCUCUACUCCUCAACTT against Ern2 | inactive: -0.389
85 | GGAACAAGAAAAUCUUGACTT against Ifna9 | inactive: 0.167
86 | GGUGCACUGUACAUGUAACTT against Fpr-rs3 | inactive: 0.642
87 | GCAGGUCUUUACCAGUAUUTT against Fcgr2b | inactive: -2.61
88 | GGGACAGGUGCCAUUGACATT against Zcchc6 | inactive: -0.89
89 | GGAAAAGCAAAAUCUCCGCTT against A730016F12Rik | inactive: -0.294
90 | GGAGAAGGUGAAACAAUUGTT against 4932431F02Rik | inactive: -0.0482
91 | GCUACAAGACUUUUACCAGTT against Tnfsf18 | inactive: 0.456
92 | GGAACAGGCAACAUGAUUGTT against Nlgn3 | inactive: -0.109
93 | CCCUGGCGAAUCAGAUUGCTT against Gm110 | inactive: -1.38
94 | GCUCUCCUGUUACUUAUAUTT against Maoa | inactive: -0.288
95 | GGCUAUGUGUUGGAGUUCUTT against Mybph | inactive: 0.538
96 | GGUCCUAGACUGGUGUCAUTT against Deadc1 | inactive: -0.225
97 | CCAAGAAAGACAGUAACUATT against 4930432K21Rik | inactive: -1.29
98 | GGCGAAAGAUGAACCACCATT against 0610033H09Rik | inactive: 0.239
99 | GGGAAAUGACCUUCAUUGGTT against Rbl2 | inactive: 0.53
100 | GGGUUUGAACUGGUGAUUGTT against 1700022C02Rik | inactive: 1.24
101 | GCAUUAAAGGAGUCCGAAUTT against Cpn1 | inactive: -0.212
102 | GCUUAGUCGGGAGAACUUUTT against Skp2 | inactive: -0.968
103 | UGGUAAGUAUUCAUGAAUCTT against V1rh13 | inactive: -1.36
